The text below walks through data of PubChem BioAssay AID445 (National Center for Advancing Translational Sciences (NCATS), 2006).

The assay in a line: IkB Signaling. The following applies: ABC-DLBCL IkBa-CBG/CBR dual luciferase ratio (green luciferase fused to IkBa over red control in OCI-Ly3 lymphoma cells), 4 h. The essentials: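 Luminescence ratio of IκBα-fused green versus native red beetle luciferase in OCI-Ly3 cells, 4 h post-doxycycline with compound; red signal alone, scaled from basal (0%) to zero light (-100%), flagged nonspecific or cytotoxic effects.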
Where [1] appears, read: measured here: control luc red channel unless noted.

This is one part of the list. These are further read-outs of the screen, such as a control signal, another cell line or another target. No call is given for them. Most of these compounds were active or inconclusive in the main read-out, so they are no random draw. Words in brackets tell the shape of the fitted curve; partial curves, single points and poor fits give uncertain potencies.

One may read the AC50 as the concentration at which the activity in the assay is half-maximal. For the molecule `COc1ccc(S(=O)(=O)Cc2ccc(C(=O)N3CCN(c4cc(Cl)ccc4C)CC3)o2)cc1`, under setting [1], the AC50 was 7.94 µM [falling, partial curve]. On the same count and under the same terms, then `CCOC(=O)c1ccc(NC(=O)Cn2cc(C(=O)c3cccs3)c3ccccc32)cc1`, with 3.98 µM [falling, full curve]. As for `COc1cc2nc(Nc3ccc(C)c(C)c3)nc(N)c2cc1OC`, the AC50 under setting [1] was 25.1 µM [falling, partial curve, poor fit]. Still for that read-out and setting: then `Cc1nc2ccn(Cc3cccs3)c(=O)c2cc1C(=O)NCc1ccc(Cl)cc1`, with 12.6 µM [falling, partial curve, poor fit].

On to `COc1ccc(-n2nnnc2S(=O)(=O)Cc2ccc(C(=O)O)cc2)cc1`, for which the concentration at half-maximal activity (AC50) (measured here: IkB-luc green channel) is 12.6 µM [falling, partial curve] and the AC50 (measured here: control luc red channel) was 2.51 µM [falling, full curve]. For `CCCCOC(=O)c1c(C)oc2ccc(NS(=O)(=O)c3ccc(F)cc3C)cc12`, the AC50 under setting [1] is 25.1 µM [falling, partial curve].

Regarding `Cn1c(C(=O)N2CCCC(C(=O)N3CCN(c4ccccc4)CC3)C2)cc2sccc21` (stereo unspecified), the AC50 under setting [1] is 15.8 µM [falling, partial curve]. The same measure, in the same setting: then `CCCCNC(=O)CSC1=Nc2ccccc2C2=NC(CCC(=O)NCc3ccccc3OC)C(=O)N12` (stereo unspecified), with 0.00501 µM [rising, full curve, poor fit]. Consider `Cc1cccc(OC(C)C(=O)Nc2ncn[nH]2)c1` (stereo unspecified), for which the AC50 under setting [1] was 20 µM [rising, partial curve, poor fit]. Regarding `CCC(=O)Nc1nc2c(OC)ccc(OC)c2s1`, the half-maximal activity concentration (AC50) under setting [1] is 10 µM [falling, partial curve].

Regarding `CCc1ccc(NC(=O)c2ccc3c(O)c(S(=O)(=O)c4ccc(Cl)cc4)c(=O)[nH]c3c2)cc1`, under setting [1], the AC50 was 15.8 µM [falling, partial curve]. On the same count and under the same terms, the figure for `COCc1cc(=O)n2c([nH]c3ccccc32)c1C#N` is 1 µM [falling, partial curve]; for `CCN(CC)c1cc(C)c2cc(NC(=O)c3cccc(OC)c3)ccc2n1` it is 5.01 µM [falling, partial curve]; for `Cc1ccccc1CN1CCN(S(=O)(=O)c2ccc(F)cc2)CC1` it is 15.8 µM [falling, partial curve]. Still for that read-out and setting: the figure for `CCOC(=O)C1CCCN(S(=O)(=O)c2ccc(F)c(C(=O)Nc3ccc(F)c(F)c3)c2)C1` (stereo unspecified) is 15.8 µM [falling, single point]. The same measure, in the same setting: then `CC(=O)c1cc2c(cc1N/C(=N/S(=O)(=O)c1ccc(C)cc1)c1ccccc1)OCO2`, with 6.31 µM [rising, partial curve].

`CCOC(=O)c1c(NC(=O)/C=C/c2ccc(OCC)cc2)sc(C)c1C`: the AC50 under setting [1] was 1 µM [rising, full curve]. For the molecule `COC(=O)C(NC(=O)CC(C)C)(Nc1nc2c(s1)CCCC2)C(F)(F)F` (stereo unspecified), the AC50 under setting [1] was 39.8 µM [falling, partial curve]. For `c1cn(CCCNc2ncnc3nc[nH]c23)cn1`, under setting [1], the AC50 was 0.00251 µM [falling, full curve]. Still for that read-out and setting: then `COc1ccc(NC(=O)CSc2nc(-c3cccs3)cc(C(F)(F)F)n2)cc1OC`, with 1 µM [rising, full curve]; and `Cc1ccc2c(c1)cc(CN(Cc1ccco1)C(=O)COc1ccccc1)c1nnnn12`, with 25.1 µM [falling, partial curve, poor fit]; and `Cc1ccc(-c2nc3c4ccccc4n(CC(=O)N4CCN(c5ccccc5F)CC4)c(=O)n3n2)cc1`, with 5.01 µM [rising, single point]. In the case of `Cc1ccc(NC(=O)CN(C)S(=O)(=O)c2ccc3c(c2)n(C)c(=O)c(=O)n3C)cc1C`, under setting [1], the AC50 was 20 µM [falling, single point]. Still for that read-out and setting: then `Cc1ccc(-n2nnnc2CNC(=O)C(C)(C)C)cc1C`, with 0.00501 µM [falling, full curve, poor fit]; and `Cc1nc(SC(C)C(=O)Nc2ccccc2C)cc(-c2ccccc2)n1` (stereo unspecified), with 20 µM [falling, partial curve].

Take `CCn1c(COc2cccc(C)c2)nnc1SCC(=O)CC(=O)Nc1ccccc1OC`: the AC50 under setting [1] is 25.1 µM [falling, partial curve]. The same measure, in the same setting: the figure for `COc1ccc(NS(=O)(=O)c2ccc(OC)c3ccccc23)cn1` is 15.8 µM [falling, partial curve]; for `Cc1ccc(-c2noc(C(C)NS(=O)(=O)c3ccc(C)cc3)n2)cc1` (stereo unspecified) it is 6.31 µM [falling, single point]; for `O=C(Nc1cccc(Cl)c1)c1cnc2sc(N3CCCC3)nn2c1=O` it is 0.251 µM [falling, full curve]. Same read-out and setting: the figure for `Cc1ccc(C)c(CN2CCCN(Cc3ccc(F)cc3)S2(=O)=O)c1` is 25.1 µM [falling, single point]; for `COc1cc(CNC(=O)c2ccc(Cn3nc(C)c(Cl)c3C)o2)cc(OC)c1` it is 15.8 µM [falling, partial curve]; for `COc1ccc(S(=O)(=O)N2CCN(c3cc(-c4ccccc4)nc4ncnn34)CC2)cc1` it is 10 µM [falling, partial curve].

Regarding `Cc1nc(-n2nc(C)c(Cc3ccccc3Cl)c2C)sc1C(=O)Nc1ccccc1F`, the AC50 under setting [1] is 1 µM [falling, partial curve]. On to `Cc1cc(C)nc(N(C#N)Cc2ccc(Br)cc2)n1`, for which, under setting [1], the half-maximal activity concentration (AC50) was 25.1 µM [falling, partial curve].

On to `CCOC(=O)Cn1c(=O)n(CC2CCCO2)c2nc(-c3ccc(C)cc3)nc(C(N)=O)c21` (stereo unspecified), for which the AC50 under setting [1] was 39.8 µM [falling, single point]. For the molecule `COc1ccccc1NC(=O)C(=O)NCC(c1ccc2c(c1)OCO2)N1CCOCC1` (stereo unspecified), the AC50 under setting [1] was 6.31 µM [falling, partial curve].

Consider `Cc1onc(-c2ccccc2Cl)c1C(=O)Nc1cccc2cccnc12`, for which, under setting [1], the AC50 was 3.98 µM [falling, full curve, poor fit]. For the molecule `COc1ccc(Cl)cc1NC(=O)Cc1ccc(NC(=O)N2CCCCc3ccccc32)cc1`, the AC50 under setting [1] was 31.6 µM [falling, single point].

As to `Cc1ccccc1OCc1nc2ccccc2c(=O)n1/N=C/c1ccco1`, the AC50 under setting [1] is 20 µM [falling, partial curve]. For `Cc1ccc(CN2CCSc3ccc(C(=O)N4CCN(c5ccccc5)CC4)cc32)cc1`, under setting [1], the AC50 was 3.98 µM [falling, full curve].
